Assay [1] has as its target T1, PipX (PII-interacting protein X), His6-tagged (UniProt Q7X386).
T1 sequence: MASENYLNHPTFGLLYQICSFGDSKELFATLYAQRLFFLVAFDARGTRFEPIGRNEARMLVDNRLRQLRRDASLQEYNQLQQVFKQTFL
The assay can be described thus: SPR; indirect assay: 500 nM His6-PipX pre-incubated with Strep-tagged PII, mixture injected on Ni-NTA chip; with 1 mM ATP; 25 °C, HBS buffer; both purified. For orientation: Surface plasmon resonance follows binding to a sensor surface in real time, without labels.

Chains of the proteins cited; added tags and fusions are not shown. Lines headed by an entry give the natural chain unless they say otherwise; changes in a name come on top.
UniProt P0A3F4: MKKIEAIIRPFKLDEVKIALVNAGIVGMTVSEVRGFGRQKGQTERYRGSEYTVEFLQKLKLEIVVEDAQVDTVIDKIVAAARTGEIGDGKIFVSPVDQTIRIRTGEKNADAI

The target in assay [2] is T1, PipX (PII-interacting protein X), His6-tagged. The assay can be described thus: SPR; indirect assay: 500 nM His6-PipX pre-incubated with Strep-tagged PII, mixture injected on Ni-NTA chip; with ADP (3 mM in Fig. 4, 1 mM in Fig. 5); 25 °C, HBS buffer; both purified.
For assay [3] the target is unchanged. The assay can be described thus: SPR; indirect assay: 500 nM His6-PipX pre-incubated with Strep-tagged PII (500 nM in Fig. 4, 100 nM in Fig. 5), mixture injected on Ni-NTA chip; without effector molecules; 25 °C, HBS buffer; both purified.
Assay [4] concerns the target T2, SeNAGK, N-acetyl-L-glutamate kinase from S. elongatus PCC7942, His6-tagged (S. elongatus PCC7942) (UniProt Q6V1L5).
T2 sequence: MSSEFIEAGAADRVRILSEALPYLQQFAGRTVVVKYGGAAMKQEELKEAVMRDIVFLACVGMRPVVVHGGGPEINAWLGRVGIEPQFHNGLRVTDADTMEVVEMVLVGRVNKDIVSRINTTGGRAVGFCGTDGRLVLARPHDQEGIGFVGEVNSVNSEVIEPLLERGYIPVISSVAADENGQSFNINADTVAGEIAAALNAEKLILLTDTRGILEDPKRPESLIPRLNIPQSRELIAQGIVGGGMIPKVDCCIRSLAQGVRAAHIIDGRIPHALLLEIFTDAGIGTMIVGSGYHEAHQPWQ
The assay can be described thus: SPR; His6-NAGK immobilised on Ni2+-loaded NTA chip (FC2), PII injected over FC1 and FC2; BIAcore X, 25 °C, HBS buffer (10 mM Hepes pH 7.5, 150 mM NaCl, 1 mM MgCl2, 0.005% Nonidet P40); both purified.

Assay [5] has as its target T2, SeNAGK, N-acetyl-L-glutamate kinase from S. elongatus PCC7942, His6-tagged (S. elongatus PCC7942). The assay can be described thus: SEC-MALS; PII mixed with NAGK (molar ratio 3:1 PII trimers to NAGK hexamers) 10 min at room temperature; Superose 6 Increase 10/300 GL; 100 mM Tris-HCl pH 7.8, 300 mM NaCl, 2 mM MgCl2, 2% glycerol; eluted fractions checked by SDS-PAGE; both purified. A general note: In gel filtration, larger molecules generally elute earlier.

In assay [6] the target is T1, PipX (PII-interacting protein X), His6-tagged. The assay can be described thus: condition: only in absence of the effector molecules (500 nM PII, 500 nM His6-PipX); SPR; indirect assay: 500 nM His6-PipX pre-incubated with Strep-tagged PII (500 nM in Fig. 4, 100 nM in Fig. 5), mixture injected on Ni-NTA chip; without effector molecules; 25 °C, HBS buffer; both purified.

These are yes or no findings as the source states them, for the method shown. Some results given as binding are weak or reduced against the parent protein; the word gives no strength. Tags and fused reporters may be left off the sequences shown.

Take “SePII (WT), PII signal-transduction protein from Synechococcus elongatus PCC 7942, Strep-tagged (from UniProt P0A3F4 1-112)”: the binding result in assay [1], in assay [2] and in assay [3] was “binds” throughout.
“SePII (K58N) variant, Strep-tagged (from UniProt P0A3F4 1-112)”: the binding result in assay [2] is on record as “binds”; in assay [4] it was “no binding”; in assay [5] it was “no binding”; in assay [6], “no binding”.
As for “SePII (K58N/L56K) variant, Strep-tagged (from UniProt P0A3F4 1-112)”, the binding result in assay [2] was “binds”; in assay [4], “no binding”; in assay [3], “binds”; in assay [5], “no binding”.

The values are drawn from PMC6908673, “Tuning the in vitro sensing and signaling properties of cyanobacterial PII protein by mutation of key residues” (Scientific Reports, 2019).
